The text below walks through data of patent US20220281966A1.

Chains of the proteins cited; added tags and fusions are not shown. Residues count along the entry.
UniProt P35225, residues 35-146: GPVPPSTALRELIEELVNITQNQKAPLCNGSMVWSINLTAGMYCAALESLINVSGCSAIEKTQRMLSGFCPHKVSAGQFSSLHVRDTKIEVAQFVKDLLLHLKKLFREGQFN

No constants are given. Whether binding was seen depends on the method and setting. Some binding calls cover weakened binding; strength is not graded here.

The target of this assay is antibody 623. Nature of the assay: competition ELISA, titrated IL-13 pre-incubated with antibody, plate coated with IL-13RbFc. Background: In an ELISA, binding on a coated surface is turned into a signal by an enzyme label.

On to “IL-13 (human IL-13, preparation not specified) (from UniProt P35225 35-146) (ligand)”, for which the binding result is given as “binds”.
